## Screening data, single-dose tests

Protein sequences, listed by entry. Tags and fused reporters are not part of them. Residues count along the entry.
UniProt P9WPC5, whole entry: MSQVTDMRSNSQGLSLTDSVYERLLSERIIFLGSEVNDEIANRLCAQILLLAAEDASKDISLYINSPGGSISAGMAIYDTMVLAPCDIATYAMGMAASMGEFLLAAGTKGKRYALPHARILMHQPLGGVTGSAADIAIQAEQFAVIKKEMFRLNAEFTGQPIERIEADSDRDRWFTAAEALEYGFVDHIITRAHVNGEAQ
UniProt P9WPC3, whole entry partner: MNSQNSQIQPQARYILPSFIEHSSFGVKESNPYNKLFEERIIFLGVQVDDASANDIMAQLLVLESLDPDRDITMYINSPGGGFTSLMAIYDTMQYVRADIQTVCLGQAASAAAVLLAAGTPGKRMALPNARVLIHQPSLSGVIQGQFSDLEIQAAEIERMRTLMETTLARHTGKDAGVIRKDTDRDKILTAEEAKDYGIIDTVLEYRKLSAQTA
UniProt P9WFT3, whole entry: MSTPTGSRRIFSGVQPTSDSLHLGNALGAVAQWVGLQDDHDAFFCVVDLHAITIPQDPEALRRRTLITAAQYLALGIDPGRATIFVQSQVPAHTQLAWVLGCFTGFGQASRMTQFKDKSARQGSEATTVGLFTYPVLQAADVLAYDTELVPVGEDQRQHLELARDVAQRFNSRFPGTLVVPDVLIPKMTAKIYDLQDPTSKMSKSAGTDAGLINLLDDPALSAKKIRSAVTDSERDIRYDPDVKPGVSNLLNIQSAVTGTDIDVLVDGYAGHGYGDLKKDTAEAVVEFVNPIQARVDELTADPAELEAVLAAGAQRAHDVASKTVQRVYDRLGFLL
UniProt Q8IDJ8, 1-583: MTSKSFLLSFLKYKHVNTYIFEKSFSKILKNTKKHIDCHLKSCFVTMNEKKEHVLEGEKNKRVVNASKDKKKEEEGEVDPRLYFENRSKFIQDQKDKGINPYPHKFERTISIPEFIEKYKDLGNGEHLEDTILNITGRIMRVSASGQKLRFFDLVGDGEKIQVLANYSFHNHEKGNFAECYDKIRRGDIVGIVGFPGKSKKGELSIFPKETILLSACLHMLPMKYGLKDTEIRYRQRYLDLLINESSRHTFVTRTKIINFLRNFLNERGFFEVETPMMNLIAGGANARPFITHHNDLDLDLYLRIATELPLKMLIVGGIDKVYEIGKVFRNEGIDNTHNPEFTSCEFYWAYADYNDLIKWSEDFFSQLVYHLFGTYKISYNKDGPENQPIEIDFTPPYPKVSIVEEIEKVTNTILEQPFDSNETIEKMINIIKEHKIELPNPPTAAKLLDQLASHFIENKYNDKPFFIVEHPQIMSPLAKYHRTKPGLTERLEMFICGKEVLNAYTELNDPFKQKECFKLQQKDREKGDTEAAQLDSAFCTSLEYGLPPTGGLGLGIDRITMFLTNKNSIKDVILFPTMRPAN

ClpP1P2: 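ClpP1P2, Mycobacterium tuberculosis (UniProt P9WPC5 and UniProt P9WPC3). Protease assay of ClpP1P2, read by the AMC dye that it sets free. Compounds at 50 µM. Direction is inferred from only a few compounds that gave an IC50; most scored high, so higher reads as stronger inhibition. Most other retested compounds had strongly negative values. About 69,000 compounds were tested under these conditions; 0.015% (about 10) showed 50% or more at least once.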
MtTrpRS: 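Enzyme assay of tryptophanyl-tRNA synthetase; the read-out is not stated. Target: Tryptophan-tRNA ligase, Mycobacterium tuberculosis (UniProt P9WFT3). Tested at 10 µM. Direction is not recorded; retested compounds ran higher, which suggests that high means inhibition. Size under these conditions: about 65,000 compounds, about 64 of them at 50% or above in at least one test.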
PfKRS1: 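Lysine-tRNA ligase, Plasmodium falciparum 3D7 (UniProt Q8IDJ8). Enzyme assay of the cytosolic lysyl-tRNA synthetase in 384-well plates, read by luminescence. Compounds at 30 µM. Direction is inferred from only a few compounds that gave an IC50; most scored high, so higher reads as stronger inhibition. Of about 69,000 compounds tested this way, about 49 (0.071%) reached 50% or more in at least one test.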

Values are the deposited “Percent Effect”, in %. The controls that fix the scale are not given in the record; negative values are as filed. This is an unselected part of the compounds tested. A dash means the value is not listed here; it may have been measured.

| # | SMILES | ClpP1P2 | MtTrpRS | PfKRS1 |
|---|---|---|---|---|
| 1 | `Cc1ccc(C(=O)N2CCN3C[C@H](Oc4cccc(F)c4)C[C@H]3C2)cn1` | -17.94 | -1.022 | 2.689 |
| 2 | `COc1cccc(CN2CCC(c3nccn3C(C)C)CC2)c1` | -2.924 | 3.231 | 4.049 |
| 3 | `c1ccc2oc(C3CCN(Cc4ncon4)CC3)nc2c1` | 11.94 | -3.043 | 5.197 |
| 4 | `COCC(c1cccc(C(F)(F)F)c1)N(C)C(=O)c1ccco1` (stereo not given) | -28.71 | -5.587 | -2.138 |
| 5 | `O=S(=O)(Cc1ccccc1Cl)N1CCC2(CC1)OCCS2` | -7.306 | 0.75 | 13.74 |
| 6 | `COc1ccccc1C(O)CNCc1c(C(C)C)nn(C)c1N(C)C` (stereo not given) | 5.669 | -2.958 | -3.188 |
| 7 | `Cn1c(CCNc2nccnc2C#N)nc2cc(Cl)ccc21` | -3.627 | -0.8942 | 2.36 |
| 8 | `CCc1n[nH]c(=O)c(C(=O)N2CCSC(C)(C)C2)c1CC` | -13.83 | 2.983 | -2.88 |
| 9 | `Cc1cc(C(=O)N2CCC3(C2)CN(c2cccnc2)C(=O)CN3C)[nH]n1` (stereo not given) | -33.92 | -1.862 | 0.4482 |
| 10 | `O=C(c1cn(-c2ccccc2C(F)(F)F)nn1)N1CCSCC1` | -7.333 | 1.373 | 9.301 |
| 11 | `c1cnc(NC[C@H]2OC[C@@H]3CCN(Cc4nccs4)C[C@@H]32)nc1` | 2.321 | 0.6206 | -1.604 |
| 12 | `Cc1ccc(N2CCC3(CCN(C(N)=O)CC3)CC2)nn1` | -3.676 | 2.205 | 5.462 |
| 13 | `COCCN1C(=O)CC[C@]12CC[C@@H](NCc1cccnc1OC)CC2` | 11.8 | -1.621 | 1.451 |
| 14 | `O=C(Cc1ccc2c(c1)OCO2)N1CCN(c2ccncc2)CC1` | -16.89 | -0.602 | 3.408 |
| 15 | `CC(C)(C)n1cc(C(=O)N2CCN(Cc3ccsc3)CC2)cn1` | 6.281 | 3.616 | 3.092 |
| 16 | `Cn1cc(NC(=O)Cn2cc(-c3ccccc3)ncc2=O)cn1` | -3.77 | -2.101 | 1.989 |
| 17 | `Cn1cc(CN2Cc3c(cnn3C)C(COCC3CC3)C2)cn1` (stereo not given) | -14.74 | -0.3003 | -3.27 |
| 18 | `CC(=O)N1CCC(c2cncc(N3CCCCCC3)n2)CC1` | -8.815 | -4.631 | 2.246 |
| 19 | `COc1ccccc1OC1CCN(C(=O)c2c[nH]c(=O)[nH]c2=O)CC1` | 5.038 | -2.564 | 7.356 |
| 20 | `Cn1cc(-c2ccc(C3CCCCN3Cc3cccnc3)cn2)cn1` (stereo not given) | -24.63 | -0.3524 | 2.642 |
| 21 | `COc1ccc(CN2CCOC3(CCCN(c4nnc(C)o4)C3)C2)cc1` (stereo not given) | -6.044 | 3.536 | -3.968 |
| 22 | `NC(=O)c1ccc(CN2CCC(N3CCCCC3)CC2)cc1` | 0.9349 | 3.809 | 10.22 |
| 23 | `CN(C)c1cnn(CC(=O)N2CCN(c3ccccc3)CC2)c(=O)c1` | -10.56 | -2.502 | 3.201 |
| 24 | `CCC1(CC)C(=O)NC(=O)N=C1Nc1ccc(C)cc1` | -4.146 | -0.576 | 0.3586 |
| 25 | `Cc1ccnc(N2CCN(C3CCS(=O)(=O)C3)CC2)n1` (stereo not given) | 15.55 | 0.1638 | 2.108 |
| 26 | `Cc1nnc(N2C[C@H](OCc3cccnc3)[C@H]3OCCC[C@H]32)s1` | 2.892 | -0.5339 | 0.5697 |
| 27 | `CNC(=O)c1ccc(C(=O)N2CCCC2c2cnn(C)c2)cn1` (stereo not given) | -0.2306 | 3.801 | -0.3591 |
| 28 | `O=C1OCCN1Cc1cc(C(F)(F)F)ccc1F` | -16.8 | 1.732 | 5.607 |
| 29 | `Cc1nc(C)c(C)c(N2CCC(O)(c3ccc(F)cc3)CC2)n1` | -11.1 | 0.9762 | 2.526 |
| 30 | `Cc1ccc(CNC(CN2CCN(C)CC2)c2ccccc2)cc1C` (stereo not given) | -7.909 | 1.373 | 6.576 |
| 31 | `Cc1nc(C(=O)N2CCCC2c2c(C)nn(C)c2C)cs1` (stereo not given) | -6.12 | -8.307 | -0.7736 |
| 32 | `CCN(CC)CCn1c(=O)oc2ccccc21` | -0.0614 | 3.181 | 4.367 |
| 33 | `Cc1ncsc1C(=O)NC1CCN(CCCC#N)CC1` | -28.89 | -4.153 | 1.603 |
| 34 | `CC(C)COc1cncc(N(C)C2CCN(c3ncccn3)CC2)n1` | -10.25 | -0.9524 | 5.241 |
| 35 | `CCN(CC)S(=O)(=O)c1ccc(NC(=O)C(C)(C)C)cc1` | -10.5 | -1.67 | -1.511 |
| 36 | `Cc1ccc(N2CCCC(NCc3cnc(C)s3)C2)nn1` (stereo not given) | 19.42 | -4.023 | -0.1653 |
| 37 | `CCN1C[C@H]2CCN(C(=O)NC3CCCC3)CC[C@H]2S1(=O)=O` | 20.34 | 4.02 | -0.05831 |
| 38 | `CC(C)COCC1CN(Cc2ccoc2)Cc2ncn(C)c21` (stereo not given) | 19.53 | 20.87 | 0.5954 |
| 39 | `O=C(Cc1cccc2ccccc12)N1CCC(Nc2cccnn2)CC1` | -7.621 | -4.944 | 2.124 |
| 40 | `CN(Cc1ccccc1)C(=O)CCN1CCC2(CC1)[C@H](O)C[C@@H]2O` | -28.9 | -1.302 | 6.755 |
| 41 | `Cn1cccc(NC(=O)NCCc2cccc(O)c2)c1=O` | -9.286 | 5.828 | -4.67 |
| 42 | `Cc1cc(C#N)ccc1S(=O)(=O)N1CCN(C)Cc2ccccc21` | 0.5766 | -0.5187 | 4.379 |
| 43 | `CCCN(C)CC1CCN(c2ccc(Br)c(C)n2)C1` (stereo not given) | -13.33 | -4.595 | 3.091 |
| 44 | `O=C(Cc1ccsc1)N1CCCC(c2n[nH]c3ncccc23)C1` (stereo not given) | -3.363 | - | 17.87 |
| 45 | `Cc1cccc(-c2nc(C)nn2CN2CCC3(CC2)OCCO3)c1` | 6.354 | 5.462 | 2.832 |
| 46 | `COc1ccc(OC)c(C(=O)N(C)Cc2nnc3ccccn23)c1` | -35.82 | -2.006 | 1.802 |
| 47 | `Cc1cc(CN(C)C(=O)Nc2ccccc2C)no1` | -0.6505 | 2.78 | 4.281 |
| 48 | `Cc1ccc(C2CSCCN2C(=O)c2cccnc2)cc1` (stereo not given) | -25.22 | -2.287 | 7.294 |
| 49 | `Cn1cccc1CN1CCC2(CC1)CN(c1ccccc1)C(=O)CO2` | -0.1063 | 1.355 | 3.27 |
| 50 | `CNCc1cc(C)n(-c2ccccc2OC)c1C` | 1.026 | 4.132 | 4.316 |
| 51 | `CNc1cc(C)nc(C2CN(Cc3ccc(Cl)cn3)CCO2)c1` (stereo not given) | 3.468 | - | 0.8291 |
| 52 | `CCc1cnc(C)nc1NCc1nc(COC)no1` | 4.934 | 0.457 | 3.067 |
| 53 | `Cc1nc(CNC2(C(=O)OC(C)(C)C)CCCC2)oc1C` | 2.821 | -0.6744 | 1.639 |
| 54 | `CCCS(=O)(=O)NCC1OCCc2cn(CC3CCOCC3)nc21` (stereo not given) | 19.45 | 26.33 | -8.852 |
| 55 | `CN1CCN(C(=O)[C@@H]2CN(C)C[C@]23COc2ccc(F)cc2C3=O)CC1` | 6.071 | 10.69 | 4.302 |

The values are deposited in ChEMBL (CHEMBL3988442, “University of Dundee, Small-Polar-MMV Screening Library” (2021)).